In all, about 360,000 compounds went through this assay and about 7,500 (2.1%) were called active. The shares of active, inactive and inconclusive entries below differ from those in the screen. Calls follow the shape of the dose curve; as a rule, active = well fitted inhibition curve with a large enough effect; inconclusive = small, poorly fitted or top-dose-only effect, or effect the other way; inactive = flat fitted curve, though single readings scatter. A potency beside an inconclusive call is a rough fit, not a confirmed value.
assay: Nrf2 qHTS screen for inhibitors; settings: A549 ARE-Fluc reporter, luciferase luminescence, 18-24 h; activity change, negative = inhibition: at 46 µM (top of the series); also: nearly all actives have a fitted effect of over 60% in size
In short: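 Nrf2 activity is the BugLite luminescence, read 15 min after reagent at room temperature, following CellTiter-Fluor cytotoxicity readout (30 min, 37C). Compound titrations were applied for 18-24 h to 5000 A549 ARE_Fluc cells/well in 5% FBS OPTI-MEM.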
% is scaled to controls: 0 for no effect and ±100 for the full control effect; potency is read from the fitted curve at half-maximal effect.

Compound | activity change, negative = inhibition | Potency
CC(NC(=O)C1CCCN1C(=O)OCc1ccccc1)c1ccccc1 (stereo not given) | inactive: 8.22% | –
O=[N+]([O-])c1ccc(S(=O)(=O)N2CCN(c3nc(-c4cccs4)nc4ccccc34)CC2)cc1 | – | inconclusive: 0.231 µM [falling, full curve, poor fit]
O=C(Oc1ccccc1)N1CCN(C(=O)c2ccco2)CC1 | inactive: 9.26% | –
CC1(c2ccc(OCC#N)cc2)C=C(c2ccc(OCC#N)cc2)n2nc(C(F)(F)F)nc2N1 (stereo not given) | – | active: 23.1 µM
CCc1ccc(OCCNC(=O)c2ccccc2SCc2ccccc2)cc1 | – | inconclusive: 14.6 µM [activator, partial curve]
O=C(CCc1ccccn1)NC1CCCc2c1cnn2-c1ccc(F)cc1F (stereo not given) | inactive: -3.15% | –
COc1ccc(OC)c(NC(=S)NCc2ccccc2OC)c1 | inactive: -3.46% | –
CC1CCC(NC(=O)c2ccc3c(c2)S(=O)(=O)c2ccccc2C3=O)CC1 (stereo not given) | – | active: 16.4 µM
Cc1ccc(O)c(-c2cc(C(=O)Nc3cccnc3)[nH]n2)c1 | – | inconclusive: 18.4 µM [activator, single point]
Cc1ccc(NC(=O)COc2ncnc3cc([N+](=O)[O-])ccc23)cc1S(=O)(=O)N1CCOCC1 | inactive: -28.3% | –
COc1ccc(-c2csc(Nc3ccc(S(=O)(=O)Nc4cc(C)on4)cc3)n2)cc1C | – | inconclusive: 18.4 µM [falling, single point]
Cc1ccc(OCCCn2c(-c3ccc(Cl)cc3)nc3ccccc3c2=O)cc1C | inactive: 5.8% | –
Cc1cccc(NC(=O)CN2C(=O)N/C(=C\c3cccn3-c3cccc(C(=O)O)c3)C2=O)c1 | – | inconclusive: 23.1 µM [falling, partial curve, poor fit]
COCCn1c(SCc2nnc(-c3ccc(OC)c(OC)c3)o2)nnc1-c1ccncc1 | – | inconclusive: 29.1 µM [falling, single point]
CC(NC(=O)CCc1nnc(C2(c3ccc(Cl)cc3)CCC2)o1)C1CC1 (stereo not given) | – | inconclusive: 14.6 µM [activator, partial curve]
Clc1cccc(Nc2nc(-c3cccnc3)cs2)c1 | – | inconclusive: 3.26 µM [activator, single point]
CCOC(=O)C1(CCOc2ccccc2)CCN(Cc2cccc(OC)c2OC)CC1 | – | inconclusive: 29.1 µM [falling, partial curve, poor fit]
Cc1ccc(NC(=O)c2cc3c(s2)CCCC3)cc1S(=O)(=O)Nc1ccccc1Cl | – | active: 7.31 µM
C/C(=N\NC(=O)c1cc(-c2ccc(Cl)s2)[nH]n1)c1ccncc1 | – | inconclusive: 0.206 µM [activator, full curve, poor fit]
CN(C)CCOc1ccc(-c2c(-c3ccccc3)sc3ccccc23)cc1 | – | inconclusive: 20.6 µM [falling, single point]
O=C(c1ccco1)N1CCN(c2nc3ccccc3c(=O)n2-c2ccccc2)CC1 | – | inconclusive: 18.4 µM [falling, partial curve]
CN(C(=O)c1ccco1)c1nnc(C23CC4CC(CC(C4)C2)C3)s1 | – | inconclusive: 23.1 µM [activator, single point]
Cc1ccc(-c2cn3c(=O)cc(C)[nH]c3n2)cc1 | – | active: 5.8 µM

Compound | activity change, negative = inhibition | Potency
CC(=O)c1sc(C(C)(C)C)cc1NC(=O)CCC(=O)O | inactive: -27.6% | –
CCOC(=O)c1ccc(-n2c(CCC(=O)O)ccc2-c2ccccc2)cc1O | inactive: -13.4% | –
C=CCNC(=O)C(=O)Nc1cc2c3c(c1)CCC(=O)N3CCC2 | – | inconclusive: 29.1 µM [falling, single point]
CCc1ccc(O)c(N=Cc2ccccc2O)c1 | – | inconclusive: 1.46 µM [falling, full curve, poor fit]
CC1Cc2cc(S(=O)(=O)N3CCC(C(=O)NCc4ccco4)CC3)ccc2N1C(=O)C1CCC1 (stereo not given) | – | inconclusive: 23.1 µM [falling, single point]
COc1cccc(C2C(C(=O)Nc3nc4ccccc4s3)=C(C)NC3=C2C(=O)CC(C)(C)C3)c1OC (stereo not given) | – | active: 16.4 µM
Cc1ccc(C)c(NC(=O)c2nc(S(=O)(=O)Cc3ccc(F)cc3)ncc2Cl)c1 | inactive: -5.47% | –
O=C(/C=C/c1c(F)cccc1Cl)Nc1ccncc1 | – | inconclusive: 3.66 µM [activator, partial curve, poor fit]
CCOC(=O)c1sc(-c2ccccc2)nc1C | – | inconclusive: 18.4 µM [activator, single point]
CCC1Sc2ccccc2N(CC(=O)NCCC2=CCCCC2)C1=O (stereo not given) | – | inconclusive: 20.6 µM [falling, partial curve, poor fit]
COc1ccc(CNC(=O)c2c(O)c3cccc4c3n(c2=O)CCC4)cc1 | inactive: -0.233% | –
Cc1ccc(/C=C/C(=O)N2CCN(c3ncccn3)CC2)o1 | inactive: -3.48% | –
CCOC(=O)N1CCN(S(=O)(=O)c2ccc(C(=O)Nc3nnc(C4CC4)o3)cc2)CC1 | – | inconclusive: 32.6 µM [falling, single point]
O=C1C2C(c3ccccc3)CC=CC2[C@H](c2cccc([N+](=O)[O-])c2)N1Cc1ccccc1 (stereo not given in full) | – | inconclusive: 20.6 µM [falling, single point]
CCc1nnc(NC(=O)c2cc(C)oc2C)s1 | – | inconclusive: 1.16 µM [activator, partial curve, poor fit]
CCN(C(=O)CN1CCCc2cc(C)ccc21)c1c(N)n(Cc2ccccc2)c(=O)[nH]c1=O | inconclusive: 60.4% [activator] | –
CCc1ccccc1S(=O)(=O)Cc1ccc(C(=O)NCCc2ccc(Cl)cc2)o1 | – | active: 23.1 µM
Cc1ccc2cc(NC(=O)Cc3ccccc3)ccc2n1 | – | inconclusive: 0.206 µM [activator, full curve, poor fit]
CN(C)c1cc[n+](CC(=O)Nc2ccc(Oc3ccccc3)cc2)cc1 | – | active: 23.1 µM
COc1cccc(-c2cc(C(=O)NC3CCCC3)no2)c1 | – | inconclusive: 8.2 µM [activator, partial curve]
COc1ccc2nc(NC(=O)c3ccc(NC(=O)C4CCCO4)cc3)sc2c1 (stereo not given) | – | inconclusive: 16.4 µM [activator, single point]
Cc1ccc(-n2nnnc2SCc2ccc(C(=O)O)cc2)cc1C | – | inconclusive: 20.6 µM [falling, partial curve]

Some of the entries so far, in CSV form:
Compound,"activity change, negative = inhibition",Potency
CC1Cc2cc(S(=O)(=O)N3CCC(C(=O)NCc4ccco4)CC3)ccc2N1C(=O)C1CCC1 (stereo not given),–,"inconclusive: 23.1 µM [falling, single point]"
Cc1ccc(/C=C/C(=O)N2CCN(c3ncccn3)CC2)o1,inactive: -3.48%,–

From PubChem BioAssay AID504444 (National Center for Advancing Translational Sciences (NCATS), 2011)
